The campaign covered roughly 52,000 sequences. About 210 (0.4%) were called active.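 Rule for the calls: active = gene whose silencing raises cell survival under the drug, median off-target-corrected z-score across its silencing RNAs 2 or more; inactive = the rest.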 The list shows a part of the results.
Assay: Resistance to Poly (ADP-Ribose) Polymerase inhibitor: Gene Identification via Genome-wide siRNA Screen
Conditions: mouse BRCA2 R2336H ES cells, olaparib, CellTiter-Glo viability; active compounds read high
How it was run: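 Mouse BRCA2 R2336H ES cells were reverse-transfected with siRNA (20 nM final), treated at 48 h with 500 nM olaparib, and read by CellTiter-Glo after 72 h. Scores: MAD-based z per siRNA, median per gene, seed off-target correction.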
For “GGAUGUGAUCCUCUGUUGCTT against F730014I05Rik”, the z-score was inactive: -0.633. For GGUACCAAAUUGUUUAACATT against Ndufv1, the z-score was inactive: 0.81. With GCUGUUGGGAUUGUACCACTT against Dhx9 the z-score was inactive: 0.183. With GGUGUAUGGUGGUGGUAGUTT against Perld1 the z-score was inactive: -1.17. With GGUCAUAGAACUCUGUAUGTT against Slc4a8 the z-score was inactive: 0.862. In the case of GGAAAAAUACUUGAUCUCCTT against Card10, the z-score is reported as inactive: 2.86. For GGAAGAACUUGACCCAGAGTT against Pex16, the z-score was inactive: -2.01. For CCCACAGUAUAGAAUGUGATT against Aldh1a2, the z-score was inactive: -0.18. For “GCCUAAAAAGCUUCUUUAGTT against 2810002O09Rik”, the z-score was inactive: 0.714. In the case of “GGCCAUCGUACGUGUUUGATT against 1110049B09Rik”, the z-score is reported as inactive: 0.927. In the case of CCUUAGGCAUGGUCUGGACTT against Gal3st2, the z-score is reported as inactive: -1.82. For GGGCUUACCUAUGUCCCUCTT against Olfr406, the z-score was inactive: 0.777. In the case of GGUUAUUCAUGUGGAAAAGTT against BC027556, the z-score is reported as inactive: 0.529. For GGAAAUGGAUCCAGAAUAUTT against Smarca1, the z-score was inactive: -1.37. In the case of GCGCAUCAACAGAGAGGUUTT against Lama2, the z-score is reported as inactive: -1.59. For CCUACAGAAGGUGAAUACUTT against Traf7, the z-score was inactive: -0.548. With GGCUGAAUAAAAUAAGUGUTT against Adra1a the z-score was inactive: -0.0879. In the case of GGUGACACAUUGUUUGUUGTT against Hagh, the z-score is reported as inactive: 0.907. In the case of “GUCACCAGACUUGUGUGGATT against 9530004A22Rik”, the z-score is reported as inactive: 0.314. With GGAAGUUGACAAAAUAGUGTT against Dlg7 the z-score was inactive: 0.613. In the case of CCACUUCUUUGCAUUUAAGTT against Slc28a3, the z-score is reported as inactive: 0.83. In the case of GCUGCUCUCCCUUUAUGACTT against Lao1, the z-score is reported as inactive: 0.112. In the case of GGAGGAUUAUUACAGAAGGTT against Lhx9, the z-score is reported as inactive: 1.41. In the case of GGUCCAUCAGGAAAAUCAATT against Obox6, the z-score is reported as inactive: 0.891. In the case of GGUUGGUGAUCAACAUCUCTT against Kcna6, the z-score is reported as inactive: -1.07. With “GGAAAUCAUUCUCCUUCAUTT against 6720455I24Rik” the z-score was inactive: 0.687. For “GCCCAACUACCAUAGCCUATT against 2400001E08Rik”, the z-score was inactive: 0.252. For CCUCGAAUCCAGUGUCAGATT against Fxyd5, the z-score was inactive: 0.807. In the case of GGUGUUGUAAGUGAUAAGATT against Serpina5, the z-score is reported as inactive: 1.45. For CCACAAGUUCCACACUCCATT against Olfr1163, the z-score was inactive: 0.09. With GGAAAUGACUACUAUGACCTT against Slc12a4 the z-score was inactive: 0.93. With CCUAACGUGCUUCCCACCATT against Arsa the z-score was inactive: -0.95. For GGAAGUUUGUAUCAAUCCATT against Smad5, the z-score was inactive: 1.46. In the case of GGUCAACAAGCAUGCAUUUTT against Wars, the z-score is reported as inactive: -3.29. With “GGAGAUUAUUACUUGAUGGTT against 4930539P14Rik” the z-score was inactive: 1.57. In the case of GCGGUACUGUCAGUGCAAUTT against Pscd1, the z-score is reported as inactive: 0.739. In the case of GGAGUAUGUGGAAUGUCUATT against Creb3l1, the z-score is reported as inactive: -0.648. In the case of “GCUGAAGACGUGAUUUCCUTT against 5930403N24Rik”, the z-score is reported as inactive: -0.404. For “CCUGUUAGCUAGAGUAGGATT against C130057D23Rik”, the z-score was inactive: -1.4. In the case of UGCCUAUUUGGGUAUUAUGTT against H2-M10.3, the z-score is reported as inactive: 1.12. With GGUUCAUGGGUUUUAAGUGTT against Sui1-rs1 the z-score was inactive: 0.721. For CCUUCAAUAUCAGUUUGGGTT against Olfr10, the z-score was inactive: 1.07. In the case of GGUAAUGACAACUAUAGAGTT against Tm4sf6, the z-score is reported as inactive: 0.637. With UAUUUUGUUGCUCUCUCAGTT against Olfr97 the z-score was inactive: 1. For CCUGUAUGGUCAAAGGAGUTT against Il6ra, the z-score was inactive: -0.112. In the case of GGGACAACAUUCAAAGGUCTT against Pwwp1, the z-score is reported as inactive: -0.508. In the case of “GCCAUACUCUUUCUAAAAUTT against 2310003P10Rik”, the z-score is reported as inactive: 1.29. For GGCAUAAGAGAAAAGAUUUTT against Avpr1a, the z-score was inactive: 0.803. For GGGUUACUUCAACUCAUGCTT against Wdr22, the z-score was inactive: 0.216. In the case of GGAAUCUGCCAUUUCAGAUTT against Zbtb5, the z-score is reported as inactive: 0.611. With CGUACAAUAGCUAGGCAUUTT against Ankrd22 the z-score was inactive: -0.687. For CCGUGAUCCCAUCAUGCAUTT against Ereg, the z-score was inactive: 0.0976. In the case of GGCGGAGGAAGAGUUCAACTT against Atp6v1e2, the z-score is reported as inactive: 0.0029. With GGACAACACCAGUGACAUCTT against Gzmf the z-score was inactive: -1.75. For GGCUCUUCUACUCCUUUUUTT against Lsm2, the z-score was inactive: -1.96. With CGAUAAGAACACCUAUAUUTT against Sf3b1 the z-score was inactive: -2.47. With GGAAAAUCAAGAUGAGAUATT against Stag2 the z-score was inactive: 0.0332. With GGAAAGAGGAAAACUCUCCTT against Pole4 the z-score was inactive: 0.702. In the case of CCAUCAAUGUAAUCUUCCATT against Zfp386, the z-score is reported as inactive: -0.559. For GGCUUAUGUGAUUUUGAUUTT against Gpr63, the z-score was inactive: -0.084. In the case of “CCCUUUGUUCAAUGUCCCATT against 6330416L11Rik”, the z-score is reported as inactive: -1.44. For GAAUAUGUGGCUCUGGGUCTT against G6pc3, the z-score was inactive: 0.347. In the case of GGCCUGAAAUCAAACGGGUTT against Smarcd1, the z-score is reported as inactive: -1.04. In the case of GCUAUUGGUGCUUCAGUCCTT against AW540478, the z-score is reported as inactive: -0.0672. For GGCCAUUUCAAGACUCUCGTT against Cd109, the z-score was inactive: 1.17. With GGCACCUCUGCUUUUAAAGTT against Ftsj2 the z-score was inactive: -0.568. For GGGAUAAGAUUUUCUUGAUTT against Dock2, the z-score was inactive: 0.168.

Source: PubChem BioAssay AID1347423 (Functional Genomics Laboratory (NCATS/FGL), 2020)
